In PubChem BioAssay AID493014 (National Center for Advancing Translational Sciences (NCATS), 2011):
About 170 (0.05%) of roughly 340,000 compounds were called active. Inconclusive results, whose numbers are uncertain, are shown with a selection of clear calls. Calls come from the whole dose curve; as a rule, active = well fitted inhibition curve with a large enough effect in the signal ratio, with a control signal flat (not every such curve was filed as active); inconclusive = small, poorly fitted or top-dose-only effect, or effect the other way, or a change in a side signal; inactive = flat fitted curve, though single readings scatter; the % refers to the signal ratio. A potency beside an inconclusive call is a rough fit, not a confirmed value.

Assay: qHTS Assay to Find Inhibitors of Chronic Active B-Cell Receptor Signaling;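 for activity change, negative = inhibition: plate controls were basal doxycycline-induced cells for no effect and cells given 10 µM MG132 for full effect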
Details: ABC-DLBCL IkBa-CBG/CBR reporter, luminescence ratio (green luciferase fused to IkBa over red control in TMD8 lymphoma cells), 4 h; activity change, negative = inhibition: at 46.1 µM (top of the series) unless noted
In short: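 Concentration-response series (up to 46 uM) were applied to TMD8 dual-reporter cells for 4 h at 37C with doxycycline. Green/red ratio, after filter-overlap correction, defined %Activity; red signal alone was normalised to basal cells and zero luminescence.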
Potency is the fitted concentration of half-maximal effect.

Compound | activity change, negative = inhibition | Potency
Cc1cc(-c2nc3ncccc3o2)ccc1NC(=S)NC(=O)C(C)C | inconclusive: 2.85% | –
COc1ccccc1C(=O)Nc1nnc(CCc2ccccc2)s1 | inconclusive: -20.2% | –
CC(=O)Nc1ccc(OCCOc2ccc([N+](=O)[O-])cc2)cc1 | inconclusive: 12.8% | –
CC(=O)Nc1ccc(OS(=O)(=O)c2c(C)cc(C)cc2C)cc1 | inactive: 1.79% | –
COc1ccc(S(=O)(=O)Nc2ccccc2C(=O)Nc2nc(-c3ccc(F)cc3)cs2)cc1OC | inconclusive: 6.19% | –
O=C(Nc1ccc(Oc2ccccc2)cc1)C1CCCO1 (stereo not drawn) | inactive: -6.2% | –
CCOc1cccc(OCCOc2ccc(C(=O)c3ccccc3)cc2)c1 | inconclusive: 2.18% | –
O=C1CN(CC(=O)N2CCCCC2)c2ccccc2O1 | – | inconclusive: 1.78 µM [falling, partial curve, poor fit]
Cc1ccc(NC(=O)c2cc3c(s2)CCCC3)cc1 | inactive: -1% | –
O=C(Cn1c(C(F)(F)F)nc2ccccc21)N=Nc1c(O)[nH]c2ccc(Br)cc12 | inactive: -0.675% | –
COc1cccc(C(=O)Nc2cccc(NC(C)=O)c2)c1 | – | inconclusive: 11.2 µM [falling, partial curve]
COc1cc(N)c(Cl)cc1C(=O)OCC(=O)N(C)C1CCCCC1 | inactive: -1.02% | –
CCCCOc1ccc(N2CC(C(=O)NCCc3ccc(OC)c(OC)c3)CC2=O)cc1 (stereo not drawn) | inconclusive: 3.33% | –
Cc1c(C(=O)N2CCN(c3ccccn3)CC2)oc2c1C(=O)CC(C)(C)C2 | inactive: 1.93% | –
Cc1ccc(C)c(OCc2ccc(C(=O)NN)o2)c1 | – | inconclusive: 2.24 µM [falling, partial curve]
Fc1ccc2cc(CCO[C@H]3CCCCO3)ncc2c1 | inconclusive: 0.876% | –
Cc1ccc(-n2cc(C(=O)c3ccc(F)cc3)nn2)cc1Cl | inconclusive: 3.66% | –
CCC(c1nc2ccccc2c(=O)n1-c1nc2ccccc2s1)N1C(=O)c2ccccc2C1=O (stereo not drawn) | inconclusive: 0.209% | –
Cc1ccsc1S(=O)(=O)N1CCCC(CCC(=O)NCc2ccccc2F)C1 (stereo not drawn) | inconclusive: 4.96% | –
Cc1ccc(NC(=O)c2nc[nH]c2C(=O)NCC(=O)OC(C)(C)C)cc1 | inconclusive: 16.8% | –
Cc1[nH]c(=O)[nH]c(=O)c1NC(=O)CSc1ncccc1-c1nc2ccccc2[nH]1 | – | inconclusive: 28.2 µM [falling, single point]
NC(=O)c1ccc(NC(=O)COC(=O)CCCN2C(=O)c3cccc4cccc(c34)C2=O)cc1 | inconclusive: 11.2% | –
Cc1cccc2sc(N(CCCN(C)C)C(=O)c3ccc(S(=O)(=O)N4CCc5ccccc5C4)cc3)nc12 | inactive: 5.35% | –

As a short view, two of the compounds above.
Compound | activity change, negative = inhibition | Potency
O=C(Nc1ccc(Oc2ccccc2)cc1)C1CCCO1 (stereo not drawn) | inactive: -6.2% | –
CCOc1cccc(OCCOc2ccc(C(=O)c3ccccc3)cc2)c1 | inconclusive: 2.18% | –
